The supplement of paper PMC10849652
The other results are listed elsewhere or left out.

The chains behind the UniProt entries cited, without tags or fusion partners. Where a name states a change or a piece, a line headed by the entry shows the natural chain unless it says otherwise.
UniProt P16403, whole entry, looked up: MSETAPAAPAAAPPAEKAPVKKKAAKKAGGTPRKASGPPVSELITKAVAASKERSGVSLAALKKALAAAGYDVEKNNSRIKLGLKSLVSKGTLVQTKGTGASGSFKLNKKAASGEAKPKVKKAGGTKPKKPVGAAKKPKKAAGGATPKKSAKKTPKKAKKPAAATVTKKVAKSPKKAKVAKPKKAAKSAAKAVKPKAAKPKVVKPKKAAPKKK
UniProt P02042: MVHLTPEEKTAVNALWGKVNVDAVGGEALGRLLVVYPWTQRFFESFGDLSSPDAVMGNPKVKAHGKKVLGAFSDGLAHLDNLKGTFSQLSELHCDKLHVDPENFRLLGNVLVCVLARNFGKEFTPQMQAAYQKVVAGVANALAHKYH
UniProt Q9BSH5: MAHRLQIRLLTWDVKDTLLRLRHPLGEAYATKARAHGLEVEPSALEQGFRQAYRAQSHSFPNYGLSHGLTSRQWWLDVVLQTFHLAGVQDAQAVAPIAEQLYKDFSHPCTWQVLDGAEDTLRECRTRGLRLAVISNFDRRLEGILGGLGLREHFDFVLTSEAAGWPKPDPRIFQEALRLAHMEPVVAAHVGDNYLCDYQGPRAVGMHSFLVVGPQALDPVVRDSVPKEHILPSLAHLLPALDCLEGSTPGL
UniProt P69892: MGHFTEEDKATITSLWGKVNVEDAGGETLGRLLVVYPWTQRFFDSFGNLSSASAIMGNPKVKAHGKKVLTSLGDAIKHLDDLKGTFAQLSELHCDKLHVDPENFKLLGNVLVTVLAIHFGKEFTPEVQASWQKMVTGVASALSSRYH
UniProt Q5GLZ8: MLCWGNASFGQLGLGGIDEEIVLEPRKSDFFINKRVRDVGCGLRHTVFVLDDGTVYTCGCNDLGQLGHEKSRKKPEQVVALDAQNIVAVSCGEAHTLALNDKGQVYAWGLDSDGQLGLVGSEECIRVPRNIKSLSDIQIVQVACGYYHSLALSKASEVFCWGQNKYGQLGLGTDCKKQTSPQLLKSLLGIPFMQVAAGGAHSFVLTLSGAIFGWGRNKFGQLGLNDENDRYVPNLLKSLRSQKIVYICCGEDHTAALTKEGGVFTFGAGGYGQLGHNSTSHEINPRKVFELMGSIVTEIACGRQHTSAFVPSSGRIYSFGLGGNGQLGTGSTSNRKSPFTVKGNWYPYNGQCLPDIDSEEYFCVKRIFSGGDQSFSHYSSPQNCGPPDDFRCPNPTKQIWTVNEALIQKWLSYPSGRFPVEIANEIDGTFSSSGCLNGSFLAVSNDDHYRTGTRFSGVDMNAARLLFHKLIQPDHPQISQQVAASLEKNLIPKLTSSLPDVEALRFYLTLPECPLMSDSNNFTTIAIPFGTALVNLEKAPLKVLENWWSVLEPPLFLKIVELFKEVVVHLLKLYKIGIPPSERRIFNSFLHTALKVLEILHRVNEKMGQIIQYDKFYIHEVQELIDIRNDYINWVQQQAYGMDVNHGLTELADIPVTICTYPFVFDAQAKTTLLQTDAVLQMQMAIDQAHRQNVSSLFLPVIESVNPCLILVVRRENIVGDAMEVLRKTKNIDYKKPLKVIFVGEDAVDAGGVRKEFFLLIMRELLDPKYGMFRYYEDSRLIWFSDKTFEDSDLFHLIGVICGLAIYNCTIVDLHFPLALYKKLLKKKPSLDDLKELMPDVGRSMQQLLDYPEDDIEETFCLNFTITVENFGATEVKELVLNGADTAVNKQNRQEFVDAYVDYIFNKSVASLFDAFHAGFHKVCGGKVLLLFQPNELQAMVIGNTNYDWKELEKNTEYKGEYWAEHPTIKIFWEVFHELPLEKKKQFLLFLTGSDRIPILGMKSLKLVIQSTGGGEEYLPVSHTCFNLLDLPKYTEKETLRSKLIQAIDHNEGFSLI
UniProt P49590: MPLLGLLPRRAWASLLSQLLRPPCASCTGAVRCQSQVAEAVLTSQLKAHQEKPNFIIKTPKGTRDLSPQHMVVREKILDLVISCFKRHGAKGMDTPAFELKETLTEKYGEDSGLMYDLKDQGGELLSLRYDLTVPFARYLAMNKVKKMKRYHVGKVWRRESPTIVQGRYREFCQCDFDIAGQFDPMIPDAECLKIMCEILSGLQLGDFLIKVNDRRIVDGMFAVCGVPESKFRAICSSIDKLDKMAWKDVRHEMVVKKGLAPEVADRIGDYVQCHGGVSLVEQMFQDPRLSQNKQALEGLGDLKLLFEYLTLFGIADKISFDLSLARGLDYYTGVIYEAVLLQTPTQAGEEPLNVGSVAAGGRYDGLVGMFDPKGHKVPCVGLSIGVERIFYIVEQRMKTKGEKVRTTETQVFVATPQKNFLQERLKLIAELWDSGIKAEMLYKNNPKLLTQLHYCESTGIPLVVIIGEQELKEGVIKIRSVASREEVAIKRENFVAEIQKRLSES
UniProt Q13888: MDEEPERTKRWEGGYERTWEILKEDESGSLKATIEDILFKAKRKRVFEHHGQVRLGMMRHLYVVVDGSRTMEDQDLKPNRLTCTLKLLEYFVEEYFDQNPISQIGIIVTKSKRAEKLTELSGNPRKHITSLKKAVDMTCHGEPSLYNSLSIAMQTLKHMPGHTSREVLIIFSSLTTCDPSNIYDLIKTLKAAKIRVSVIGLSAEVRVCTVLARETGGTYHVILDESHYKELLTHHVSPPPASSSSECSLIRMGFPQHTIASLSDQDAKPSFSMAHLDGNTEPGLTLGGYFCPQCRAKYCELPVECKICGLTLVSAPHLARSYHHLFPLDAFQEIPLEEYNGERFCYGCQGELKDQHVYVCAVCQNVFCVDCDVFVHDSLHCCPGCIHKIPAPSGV
UniProt Q8WW33: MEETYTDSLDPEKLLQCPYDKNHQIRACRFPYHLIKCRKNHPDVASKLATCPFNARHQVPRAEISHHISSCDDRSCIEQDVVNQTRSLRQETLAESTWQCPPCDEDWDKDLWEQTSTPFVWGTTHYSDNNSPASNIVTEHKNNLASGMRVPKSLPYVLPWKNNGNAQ
UniProt Q9BXL5: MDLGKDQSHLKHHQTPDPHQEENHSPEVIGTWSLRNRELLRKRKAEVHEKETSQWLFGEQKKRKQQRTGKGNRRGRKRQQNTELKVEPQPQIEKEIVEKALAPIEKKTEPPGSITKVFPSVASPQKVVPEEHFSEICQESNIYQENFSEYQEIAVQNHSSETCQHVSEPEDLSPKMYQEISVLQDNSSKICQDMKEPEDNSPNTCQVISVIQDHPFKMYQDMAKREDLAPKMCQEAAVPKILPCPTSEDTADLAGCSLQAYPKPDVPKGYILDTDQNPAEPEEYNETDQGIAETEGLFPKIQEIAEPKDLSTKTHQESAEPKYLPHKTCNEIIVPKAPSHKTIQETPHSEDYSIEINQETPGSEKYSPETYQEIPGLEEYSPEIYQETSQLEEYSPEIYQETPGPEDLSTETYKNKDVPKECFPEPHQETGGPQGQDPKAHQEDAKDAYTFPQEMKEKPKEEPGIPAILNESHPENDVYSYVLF
UniProt Q8TDG4: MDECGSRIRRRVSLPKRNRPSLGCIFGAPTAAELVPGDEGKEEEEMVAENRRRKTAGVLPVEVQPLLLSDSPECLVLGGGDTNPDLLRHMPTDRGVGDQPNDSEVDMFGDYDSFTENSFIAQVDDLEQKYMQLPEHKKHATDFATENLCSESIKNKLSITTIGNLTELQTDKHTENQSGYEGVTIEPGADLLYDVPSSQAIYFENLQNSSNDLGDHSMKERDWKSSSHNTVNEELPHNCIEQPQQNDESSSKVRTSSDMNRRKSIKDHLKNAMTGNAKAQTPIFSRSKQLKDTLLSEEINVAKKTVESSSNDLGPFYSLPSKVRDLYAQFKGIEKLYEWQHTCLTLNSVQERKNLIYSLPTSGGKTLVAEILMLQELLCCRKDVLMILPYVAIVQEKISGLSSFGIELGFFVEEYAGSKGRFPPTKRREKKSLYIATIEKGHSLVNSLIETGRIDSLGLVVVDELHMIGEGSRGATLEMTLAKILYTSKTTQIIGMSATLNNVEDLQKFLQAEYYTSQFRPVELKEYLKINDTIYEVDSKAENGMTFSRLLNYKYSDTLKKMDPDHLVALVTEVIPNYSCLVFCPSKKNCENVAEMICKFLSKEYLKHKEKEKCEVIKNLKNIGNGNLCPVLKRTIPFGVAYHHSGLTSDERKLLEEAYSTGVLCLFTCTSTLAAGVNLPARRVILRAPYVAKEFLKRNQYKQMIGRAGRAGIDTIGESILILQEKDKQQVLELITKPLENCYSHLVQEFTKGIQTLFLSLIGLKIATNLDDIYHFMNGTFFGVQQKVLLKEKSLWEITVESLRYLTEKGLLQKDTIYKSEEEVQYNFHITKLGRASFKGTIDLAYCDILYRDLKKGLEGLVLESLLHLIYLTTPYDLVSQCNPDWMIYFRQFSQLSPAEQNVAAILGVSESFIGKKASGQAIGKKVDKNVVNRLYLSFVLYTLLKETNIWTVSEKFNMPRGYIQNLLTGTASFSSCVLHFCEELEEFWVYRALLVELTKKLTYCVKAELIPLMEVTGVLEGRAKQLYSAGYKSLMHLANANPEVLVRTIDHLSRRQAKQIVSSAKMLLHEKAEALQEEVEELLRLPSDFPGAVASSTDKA
UniProt P48637: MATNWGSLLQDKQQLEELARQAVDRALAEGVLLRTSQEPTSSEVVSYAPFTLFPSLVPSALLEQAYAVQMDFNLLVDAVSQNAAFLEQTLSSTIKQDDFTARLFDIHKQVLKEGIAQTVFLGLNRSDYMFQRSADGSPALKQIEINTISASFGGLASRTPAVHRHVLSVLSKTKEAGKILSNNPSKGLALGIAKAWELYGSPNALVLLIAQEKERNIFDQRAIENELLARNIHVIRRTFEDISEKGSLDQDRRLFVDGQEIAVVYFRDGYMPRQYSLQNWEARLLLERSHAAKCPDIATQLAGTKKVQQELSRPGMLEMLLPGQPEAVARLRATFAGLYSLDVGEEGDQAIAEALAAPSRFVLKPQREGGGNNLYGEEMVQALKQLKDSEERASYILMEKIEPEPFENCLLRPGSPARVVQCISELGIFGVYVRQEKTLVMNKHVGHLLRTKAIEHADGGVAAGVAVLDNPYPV
UniProt A4D1E9: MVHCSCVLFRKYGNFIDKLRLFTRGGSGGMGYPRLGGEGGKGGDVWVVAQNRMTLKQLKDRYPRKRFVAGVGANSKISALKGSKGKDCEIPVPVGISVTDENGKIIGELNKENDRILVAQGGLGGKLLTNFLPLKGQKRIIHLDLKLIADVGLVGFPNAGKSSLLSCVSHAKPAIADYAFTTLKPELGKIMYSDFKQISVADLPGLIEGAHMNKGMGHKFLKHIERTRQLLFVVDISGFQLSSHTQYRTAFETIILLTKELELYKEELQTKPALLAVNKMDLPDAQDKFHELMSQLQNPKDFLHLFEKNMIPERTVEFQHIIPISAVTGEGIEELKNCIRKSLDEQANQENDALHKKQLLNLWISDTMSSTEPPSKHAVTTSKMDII
UniProt P14317: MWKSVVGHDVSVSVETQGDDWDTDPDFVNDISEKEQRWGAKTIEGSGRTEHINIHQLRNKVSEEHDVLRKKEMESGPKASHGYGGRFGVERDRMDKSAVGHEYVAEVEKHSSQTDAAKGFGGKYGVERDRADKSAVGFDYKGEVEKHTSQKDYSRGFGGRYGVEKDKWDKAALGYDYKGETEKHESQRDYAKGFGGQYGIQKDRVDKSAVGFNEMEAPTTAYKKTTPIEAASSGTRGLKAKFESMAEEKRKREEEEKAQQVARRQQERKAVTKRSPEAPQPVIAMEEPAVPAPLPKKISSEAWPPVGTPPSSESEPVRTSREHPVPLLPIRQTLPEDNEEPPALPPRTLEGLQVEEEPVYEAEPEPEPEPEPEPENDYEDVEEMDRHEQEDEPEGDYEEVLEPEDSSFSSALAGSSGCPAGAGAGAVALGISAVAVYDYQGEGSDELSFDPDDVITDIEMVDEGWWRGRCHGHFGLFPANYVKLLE
UniProt O00178: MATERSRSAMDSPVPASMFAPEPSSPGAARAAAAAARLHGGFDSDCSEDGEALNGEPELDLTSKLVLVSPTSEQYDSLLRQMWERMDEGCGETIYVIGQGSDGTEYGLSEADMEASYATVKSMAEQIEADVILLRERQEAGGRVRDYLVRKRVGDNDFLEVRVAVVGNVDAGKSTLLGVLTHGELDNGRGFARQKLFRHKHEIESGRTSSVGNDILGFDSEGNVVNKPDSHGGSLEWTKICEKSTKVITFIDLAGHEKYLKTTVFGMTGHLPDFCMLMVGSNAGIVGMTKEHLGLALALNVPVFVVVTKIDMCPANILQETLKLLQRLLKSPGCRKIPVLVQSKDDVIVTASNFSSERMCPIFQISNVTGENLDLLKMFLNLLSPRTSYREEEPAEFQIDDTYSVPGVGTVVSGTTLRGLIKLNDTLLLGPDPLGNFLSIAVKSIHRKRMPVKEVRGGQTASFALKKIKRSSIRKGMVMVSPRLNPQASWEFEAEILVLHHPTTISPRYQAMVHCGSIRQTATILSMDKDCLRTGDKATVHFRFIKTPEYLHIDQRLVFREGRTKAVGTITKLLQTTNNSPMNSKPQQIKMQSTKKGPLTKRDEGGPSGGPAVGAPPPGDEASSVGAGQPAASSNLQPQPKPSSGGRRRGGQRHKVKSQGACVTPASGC

Columns and labels:
Assay in all cases: log2 fold change, soluble protein after heating vs DMSO (PISA); higher = thermal stabilisation; K562 cells, 10 uM, 30 min; active = over 0.2 and 3.5 SD of the protein, either way, in both replicates (recomputed)
[1] = compound: CC1=C(C=C(C=C1)NC(=O)C2=CC(=CC=C2)C(C)(C)C#N)NC3=CC4=C(C=C3)N=CN(C4=O)C
Procedure, shortened: (§1)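 For each measurement, 10 μM compound was applied for 30 min to K562 cells at 2×10^6 cells/mL. Aliquots were heated for 3 min across 48°C-58°C, pooled, and extracted in PBS with 0.5% NP-40 at 4°C; the supernatant after 21,000xg for 90 min was soluble protein. This was quantified by TMTpro 16plex LC-MS/MS with channel sums equalised, and thermal stability was reported relative to control samples from duplicates, on a log2 fold-change scale.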

[2] = compound: CC1=C(C=C(C=C1)NC(=O)C2=CC(=CC=C2)N(C)C)NC(=O)C3=CC=C(C=C3)O
Procedure, shortened: as §1

[3] = compound: CC1=CC=C(C=C1)SC2=C3C=C(SC3=CN=C2)C(=O)N
Procedure, shortened: as §1

[4] = compound: CC1=NC(=CC=C1)C2=C(N=C(N2)C(C)(C)C)C3=CC4=NC=CN=C4C=C3
Procedure, shortened: as §1

[5] = compound: CCCCN(Cc1ccc(C(=O)NO)cc1)C(=O)Nc1ccccc1 [Nexturastat A]
Procedure, shortened: as §1

[6] = compound: CCCS(=O)(=O)Nc1ccc(F)c(C(=O)c2c[nH]c3ncc(-c4ccc(Cl)cc4)cc23)c1F [vemurafenib]
Procedure, shortened: as §1

[7] = compound: CCCS(=O)(=O)Nc1ccc(F)c(C(=O)c2c[nH]c3ncc(Cl)cc23)c1F
Procedure, shortened: as §1

[8] = compound: CCCc1cc(C)[nH]c(=O)c1CNC(=O)c1cc(-c2ccnc(N3CCN(C)CC3)c2)cc2c1cnn2C(C)C
Procedure, shortened: as §1

[9] = compound: CCN(CC)Cc1ccc2cc(COC(=O)Nc3ccc(C(=O)NO)cc3)ccc2c1 [givinostat]
Procedure, shortened: as §1

[10] = compound: CCN(CCCOc1ccc2c(Nc3cc(CC(=O)Nc4cccc(F)c4)[nH]n3)ncnc2c1)CCOP(=O)(O)O [barasertib]
Procedure, shortened: as §1

[11] = compound: CC[C@@H]1C(=O)N(C)c2cnc(Nc3ccc(C(=O)NC4CCN(C)CC4)cc3OC)nc2N1C1CCCC1
Procedure, shortened: as §1

[12] = compound: CC[C@@H]1C(=O)N(C)c2cnc(Nc3ccc(C(=O)N[C@H]4CC[C@H](N5CCN(CC6CC6)CC5)CC4)cc3OC)nc2N1C(C)C [volasertib]
Procedure, shortened: as §1

[13] = compound: CC[C@H](C)N1C=C(C2=C(C=C(C=C21)C3=CN=C(C=C3)N4CCNCC4)C(=O)NCC5=C(C=C(NC5=O)C)C)C
Procedure, shortened: as §1

[14] = compound: CC[C@H](C)[C@@H](C(=O)N[C@@H]([C@@H](C)O)C(=O)N[C@@H](CC(C)C)C(=O)[C@]1(CO1)C)NC(=O)[C@H]([C@@H](C)CC)N(C)C(=O)C [epoxomicin]
Procedure, shortened: as §1

[15] = compound: CCn1c(C(=O)N(C2CC2)C2CC2)cc2c3c(ncn3C)c(Nc3cc(C)n(C)n3)nc21
Procedure, shortened: as §1

[16] = compound: CCn1cc(-c2ccnc3[nH]c(-c4cccc(CN(C)C)c4)cc23)c(-c2ccc(NC(=O)N(C)C)cc2)n1
Procedure, shortened: as §1

[17] = compound: CN(C)CC(=O)Nc1ccc2[nH]c(=O)c3ccccc3c2c1
Procedure, shortened: as §1

[18] = compound: CN(CCOC1=CC=C(C=C1)C[C@H]2C(=O)NC(=O)S2)C3=CC=CC=N3 (racemic) [rosiglitazone]
Procedure, shortened: as §1

[19] = compound: CN1C2=C(C3=C1C(=O)N(N=C3)CC4=CC(=CC=C4)N)SC(=C2)S(=O)C
Procedure, shortened: as §1

[20] = compound: CN1CCC(CNc2ccc3ncc(-c4cccc(OC(F)(F)F)c4)n3n2)CC1
Procedure, shortened: as §1

Measured: log2 fold change

HEATR5A (UniProt Q86XA9)
inactive: [1] 0.087 | [2] 0.005 | [3] -0.029 | [4] 0.075 | [5] 0.243 | [6] -0.024 | [7] 0.175 | [8] 0.034 | [9] 0.033 | [10] 0.112 | [11] -0.152 | [12] -0.051 | [13] 0.176 | [14] 0.087 | [15] -0.101 | [16] 0.07 | [17] 0.037 | [18] 0.034 | [19] -0.047 | [20] 0.022

H1-2 (UniProt P16403)
inactive: [1] 0.069 | [2] -0.036 | [3] -0.072 | [4] -0.08 | [5] 0.54 | [6] -0.148 | [7] -0.118 | [8] 0.203 | [9] 0.149 | [10] -0.174 | [11] 0.165 | [12] 0.475 | [13] -0.022 | [14] -0.115 | [15] 0.006 | [16] 0.283 | [17] -0.108 | [18] -0.185 | [19] 0.307 | [20] 0.377

HBD (UniProt P02042)
inactive: [1] -0.093 | [2] -0.101 | [3] 0.102 | [4] 0.045 | [5] 0.039 | [6] 0.139 | [7] -0.059 | [8] -0.065 | [9] -0.048 | [10] 0.048 | [11] 0.077 | [12] 0.038 | [13] -0.018 | [14] 0.275 | [15] 0.017 | [16] -0.118 | [17] -0.006 | [18] 0.049 | [19] -0.013 | [20] 0.232

Two neighbouring entries from above, for reference:
HEATR5A (UniProt Q86XA9)
inactive: [1] 0.087 | [2] 0.005 | [3] -0.029 | [4] 0.075 | [5] 0.243 | [6] -0.024 | [7] 0.175 | [8] 0.034 | [9] 0.033 | [10] 0.112 | [11] -0.152 | [12] -0.051 | [13] 0.176 | [14] 0.087 | [15] -0.101 | [16] 0.07 | [17] 0.037 | [18] 0.034 | [19] -0.047 | [20] 0.022

H1-2 (UniProt P16403)
inactive: [1] 0.069 | [2] -0.036 | [3] -0.072 | [4] -0.08 | [5] 0.54 | [6] -0.148 | [7] -0.118 | [8] 0.203 | [9] 0.149 | [10] -0.174 | [11] 0.165 | [12] 0.475 | [13] -0.022 | [14] -0.115 | [15] 0.006 | [16] 0.283 | [17] -0.108 | [18] -0.185 | [19] 0.307 | [20] 0.377

(cont.)

HDHD3 (UniProt Q9BSH5)
inactive: [1] 0.051 | [2] -0.005 | [3] -0.007 | [4] -0.091 | [5] -0.14 | [6] 0.002 | [7] -0.003 | [8] -0.013 | [9] 0.018 | [10] 0.013 | [11] -0.009 | [12] 0.037 | [13] -0.013 | [14] -0.001 | [15] 0.01 | [16] -0.019 | [17] 0.06 | [18] 0.011 | [19] -0.002 | [20] 0.041

HBG2 (UniProt P69892)
inactive: [1] 0.055 | [2] -0.102 | [3] 0.069 | [4] 0.072 | [5] -0.036 | [6] 0.069 | [7] 0.039 | [8] 0.03 | [9] -0.08 | [10] -0.022 | [11] 0 | [12] -0.009 | [13] -0.002 | [14] 0.203 | [15] 0.076 | [16] -0.02 | [17] 0.018 | [18] -0.099 | [19] -0.06 | [20] 0.088

GTSE1 (UniProt Q9NYZ3)
inactive: [1] -0.152 | [2] 0.04 | [3] 0.081 | [4] 0.127 | [5] 0.133 | [6] -0.11 | [7] 0.14 | [8] 0.027 | [9] 0.286 | [10] 0.045 | [11] -0.465 | [12] -0.333 | [13] 0.023 | [14] -0.076 | [15] 0.088 | [16] -0.074 | [17] 0.01 | [18] -0.193 | [19] 0.002 | [20] -0.129

HERC4 (UniProt Q5GLZ8)
inactive: [1] 0.009 | [2] -0.004 | [3] 0.027 | [4] 0.006 | [5] -0.02 | [6] 0.05 | [7] 0.065 | [8] -0.042 | [9] 0.012 | [10] 0.035 | [11] -0.014 | [12] -0.096 | [13] 0.044 | [14] 0.03 | [15] 0.013 | [16] -0.014 | [17] 0.011 | [18] 0.009 | [19] -0.047 | [20] -0.028

HARS2 (UniProt P49590)
inactive: [1] -0.039 | [2] 0.003 | [3] -0.009 | [4] -0.053 | [5] -0.018 | [6] -0.009 | [7] -0.057 | [8] -0.016 | [9] -0.096 | [10] -0.011 | [11] 0.058 | [12] 0.093 | [13] -0.058 | [14] -0.018 | [15] -0.017 | [16] 0.053 | [17] 0 | [18] 0.004 | [19] -0.011 | [20] 0.077

GTF2H2 (UniProt Q13888)
inactive: [1] -0.027 | [2] 0.004 | [3] 0 | [4] -0.033 | [5] 0.08 | [6] 0.016 | [7] -0.023 | [8] 0.008 | [9] -0.004 | [10] -0.001 | [11] 0.001 | [12] -0.079 | [13] 0.09 | [14] 0.084 | [15] -0.031 | [16] -0.063 | [17] 0.021 | [18] -0.01 | [19] 0.065 | [20] -0.007

GTSF1 (UniProt Q8WW33)
inactive: [1] -0.007 | [2] 0.138 | [3] -0.002 | [4] 0.013 | [5] -0.059 | [6] -0.026 | [7] -0.018 | [8] -0.018 | [9] -0.012 | [10] 0.003 | [11] -0.053 | [12] 0.092 | [13] 0 | [14] 0.038 | [15] 0.05 | [16] -0.025 | [17] -0.04 | [18] -0.018 | [19] -0.067 | [20] -0.029

HEMGN (UniProt Q9BXL5)
inactive: [1] -0.015 | [2] 0.023 | [3] 0.007 | [4] -0.003 | [5] -0.038 | [6] -0.016 | [7] -0.013 | [8] -0.022 | [9] -0.061 | [10] -0.028 | [11] 0.012 | [12] 0.078 | [13] -0.023 | [14] 0.01 | [15] 0.046 | [16] 0.021 | [17] -0.023 | [18] -0.006 | [19] -0.012 | [20] 0.019

HELQ (UniProt Q8TDG4)
inactive: [1] 0.065 | [2] -0.1 | [3] 0.067 | [4] -0.005 | [5] -0.051 | [6] -0.175 | [7] -0.002 | [8] -0.006 | [9] -0.084 | [10] 0.047 | [11] 0.104 | [12] 0.134 | [13] 0.099 | [14] 0.051 | [15] 0.004 | [16] 0.056 | [17] 0.084 | [18] -0.11 | [19] -0.036 | [20] 0.056

GSS (UniProt P48637)
inactive: [1] -0.017 | [2] 0.01 | [3] 0.032 | [4] 0.012 | [5] -0.08 | [6] -0.009 | [7] 0.015 | [8] -0.024 | [9] -0.072 | [10] -0.014 | [11] 0.017 | [12] 0.044 | [13] -0.049 | [14] -0.026 | [15] -0.007 | [16] -0.002 | [17] -0.009 | [18] 0.002 | [19] -0.046 | [20] -0.036

GTPBP10 (UniProt A4D1E9)
inactive: [1] 0.181 | [2] -0.056 | [3] -0.05 | [4] 0.025 | [5] 0.004 | [6] -0.056 | [7] -0.051 | [8] 0.136 | [9] 0.138 | [10] 0.077 | [11] 0.183 | [12] 0.33 | [13] -0.045 | [14] -0.153 | [15] -0.023 | [16] 0.304 | [17] 0.053 | [18] 0.016 | [19] 0.133 | [20] 0.104

HCLS1 (UniProt P14317)
inactive: [1] -0.031 | [2] 0.053 | [3] 0.026 | [4] -0.008 | [5] -0.013 | [6] 0.056 | [7] -0.003 | [8] -0.024 | [9] -0.036 | [10] 0.01 | [11] -0.034 | [12] -0.003 | [13] -0.022 | [14] -0.02 | [15] 0.04 | [16] 0.026 | [17] -0.048 | [18] -0.006 | [19] -0.036 | [20] -0.055

GTPBP1 (UniProt O00178)
inactive: [1] -0.036 | [2] -0.032 | [3] 0.011 | [4] -0.028 | [5] 0.022 | [6] 0.018 | [7] 0.009 | [8] 0.05 | [9] 0.004 | [10] 0.014 | [11] -0.004 | [12] -0.157 | [13] 0.009 | [14] -0.024 | [15] 0.022 | [16] 0 | [17] -0.031 | [18] 0.008 | [19] -0.021 | [20] -0.005
